Experimental data reported in PMC7696408.
These are yes or no findings as the source states them, for the method shown. Binding seen in cells or lysates may run through a third protein. Here binding means that the protein was enriched with, or labelled near, the bait; the list need not be complete.

target: FlagBirA*-HRAS (human) (UniProt P01112); experiment: proximity labelling; BioID: FlagBirA*-RAS bait in Flp-In T-REx 293 cells, 1 µg/mL tetracycline and 50 µM biotin for 24 h; modified RIPA lysis, Streptavidin Sepharose capture, trypsin, LC-MS/MS; hits at SAINT score ≥ 0.75; labelling radius ~10 nm

| Binder | binding |
| --- | --- |
| S100A11 (protein, UniProt P31949 1-105) MAKISSPTETERCIESLIAVFQKYAGKDGYNYTLSKTEFLSFMNTELAAFTKNQKDPGVLDRMMKKLDTNSDGQLDFSEFLNLIGGLAMACHDSFLKAVPSQKRT | binds |
| C14orf133 (protein, UniProt Q9H9C1 1-493) MNRTKGDEEEYWNSSKFKAFTFDDEDDELSQLKESKRAVNSLRDFVDDDDDDDLERVSWSGEPVGSISWSIRETAGNSGSTHEGREQLKSRNSFSSYAQLPKPTSTYSLSSFFRGRTRPGSFQSLSDALSDTPAKSYAPELGRPKGEYRDYSNDWSPSDTVRRLRKGKVCSLERFRSLQDKLQLLEEAVSMHDGNVITAVLIFLKRTLSKEILFRELEVRQVALRHLIHFLKEIGDQKLLLDLFRFLDRTEELALSHYREHLNIQDPDKRKEFLKTCVGLPFSAEDSAHIQDHYTLLERQIIIEANDRHLESAGQTEIFRKHPRKASILNMPLVTTLFYSCFYHYTEAEGTFSSPVNLKKTFKIPDKQYVLTALAARAKLRAWNDVDALFTTKNWLGYTKKRAPIGFHRVVEILHKNNAPVQILQEYVNLVEDVDTKLNLATKFKCHDVVIDTYRDLKDRQQLLAYRSKVDKGSAEEEKIDALLSSSQIRWKN | binds |
| CNN2 (protein, UniProt Q99439 1-309) MSSTQFNKGPSYGLSAEVKNRLLSKYDPQKEAELRTWIEGLTGLSIGPDFQKGLKDGTILCTLMNKLQPGSVPKINRSMQNWHQLENLSNFIKAMVSYGMNPVDLFEANDLFESGNMTQVQVSLLALAGKAKTKGLQSGVDIGVKYSEKQERNFDDATMKAGQCVIGLQMGTNKCASQSGMTAYGTRRHLYDPKNHILPPMDHSTISLQMGTNKCASQVGMTAPGTRRHIYDTKLGTDKCDNSSMSLQMGYTQGANQSGQVFGLGRQIYDPKYCPQGTVADGAPSGTGDCPDPGEVPEYPPYYQEEAGY | binds |
| GIPC1 (protein, UniProt O14908 1-333) MPLGLGRRKKAPPLVENEEAEPGRGGLGVGEPGPLGGGGSGGPQMGLPPPPPALRPRLVFHTQLAHGSPTGRIEGFTNVKELYGKIAEAFRLPTAEVMFCTLNTHKVDMDKLLGGQIGLEDFIFAHVKGQRKEVEVFKSEDALGLTITDNGAGYAFIKRIKEGSVIDHIHLISVGDMIEAINGQSLLGCRHYEVARLLKELPRGRTFTLKLTEPRKAFDMISQRSAGGRPGSGPQLGTGRGTLRLRSRGPATVEDLPSAFEEKAIEKVDDLLESYMGIRDTELAATMVELGKDKRNPDELAEALDERLGDFAFPDEFVFDVWGAIGDAKVGRY | binds |
| GDI2 (protein, UniProt P50395 1-445) MNEEYDVIVLGTGLTECILSGIMSVNGKKVLHMDRNPYYGGESASITPLEDLYKRFKIPGSPPESMGRGRDWNVDLIPKFLMANGQLVKMLLYTEVTRYLDFKVTEGSFVYKGGKIYKVPSTEAEALASSLMGLFEKRRFRKFLVYVANFDEKDPRTFEGIDPKKTTMRDVYKKFDLGQDVIDFTGHALALYRTDDYLDQPCYETINRIKLYSESLARYGKSPYLYPLYGLGELPQGFARLSAIYGGTYMLNKPIEEIIVQNGKVIGVKSEGEIARCKQLICDPSYVKDRVEKVGQVIRVICILSHPIKNTNDANSCQIIIPQNQVNRKSDIYVCMISFAHNVAAQGKYIAIVSTTVETKEPEKEIRPALELLEPIEQKFVSISDLLVPKDLGTESQIFISRTYDATTHFETTCDDIKNIYKRMTGSEFDFEEMKRKKNDIYGED | binds |

Further lines, results first:

| binding | Binder |
| --- | --- |
| binds | STX3 (protein, UniProt Q13277 1-289) MKDRLEQLKAKQLTQDDDTDAVEIAIDNTAFMDEFFSEIEETRLNIDKISEHVEEAKKLYSIILSAPIPEPKTKDDLEQLTTEIKKRANNVRNKLKSMEKHIEEDEVRSSADLRIRKSQHSVLSRKFVEVMTKYNEAQVDFRERSKGRIQRQLEITGKKTTDEELEEMLESGNPAIFTSGIIDSQISKQALSEIEGRHKDIVRLESSIKELHDMFMDIAMLVENQGEMLDNIELNVMHTVDHVEKARDETKKAVKYQSQARKKLIIIIVLVVVLLGILALIIGLSVGLN |
| binds | NOP58 (protein, UniProt Q9Y2X3 1-529) MLVLFETSVGYAIFKVLNEKKLQEVDSLWKEFETPEKANKIVKLKHFEKFQDTAEALAAFTALMEGKINKQLKKVLKKIVKEAHEPLAVADAKLGGVIKEKLNLSCIHSPVVNELMRGIRSQMDGLIPGVEPREMAAMCLGLAHSLSRYRLKFSADKVDTMIVQAISLLDDLDKELNNYIMRCREWYGWHFPELGKIISDNLTYCKCLQKVGDRKNYASAKLSELLPEEVEAEVKAAAEISMGTEVSEEDICNILHLCTQVIEISEYRTQLYEYLQNRMMAIAPNVTVMVGELVGARLIAHAGSLLNLAKHAASTVQILGAEKALFRALKSRRDTPKYGLIYHASLVGQTSPKHKGKISRMLAAKTVLAIRYDAFGEDSSSAMGVENRAKLEARLRTLEDRGIRKISGTGKALAKTEKYEHKSEVKTYDPSGDSTLPTCSKKRKIEQVDKEDEITEKKAKKAKIKVKVEEEEEEKVAEEEETSVKKKKKRGKKKHIKEEPLSEEEPCTSTAIASPEKKKKKKKKRENED |
| binds | RAB23 (protein, UniProt Q9ULC3 1-237) MLEEDMEVAIKMVVVGNGAVGKSSMIQRYCKGIFTKDYKKTIGVDFLERQIQVNDEDVRLMLWDTAGQEEFDAITKAYYRGAQACVLVFSTTDRESFEAVSSWREKVVAEVGDIPTVLVQNKIDLLDDSCIKNEEAEALAKRLKLRFYRTSVKEDLNVNEVFKYLAEKYLQKLKQQIAEDPELTHSSSNKIGVFNTSGGSHSGQNSGTLNGGDVINLRPNKQRTKKNRNPFSSCSIP |
| binds | RAB12 (protein, UniProt Q6IQ22 1-340) MLLPLLRSSCFPSSSPGGGGGSGGGGGGGDPGAESRPAAQLQRGAHGPPGPLQRAEAEPGADPPRAAEAEGAPGPGARSRGAGGGGRRAEREPHACMDPGAALQRRAGGGGGLGAGSPALSGGQGRRRKQPPRPADFKLQVIIIGSRGVGKTSLMERFTDDTFCEACKSTVGVDFKIKTVELRGKKIRLQIWDTAGQERFNSITSAYYRSAKGIILVYDITKKETFDDLPKWMKMIDKYASEDAELLLVGNKLDCETDREITRQQGEKFAQQITGMRFCEASAKDNFNVDEIFLKLVDDILKKMPLDILRNELSNSILSLQPEPEIPPELPPPRPHVRCC |
| binds | SCAMP1 (protein, UniProt O15126 1-338) MSDFDSNPFADPDLNNPFKDPSVTQVTRNVPPGLDEYNPFSDSRTPPPGGVKMPNVPNTQPAIMKPTEEHPAYTQIAKEHALAQAELLKRQEELERKAAELDRREREMQNLSQHGRKNNWPPLPSNFPVGPCFYQDFSVDIPVEFQKTVKLMYYLWMFHAVTLFLNIFGCLAWFCVDSARAVDFGLSILWFLLFTPCSFVCWYRPLYGAFRSDSSFRFFVFFFVYICQFAVHVLQAAGFHNWGNCGWISSLTGLNQNIPVGIMMIIIAALFTASAVISLVMFKKVHGLYRTTGASFEKAQQEFATGVMSNKTVQTAAANAASTAASSAAQNAFKGNQI |
| binds | SRP9 (protein, UniProt P49458 1-86) MPQYQTWEEFSRAAEKLYLADPMKARVVLKYRHSDGNLCVKVTDDLVCLVYKTDQAQDVKKIEKFHSQLMRLMVAKEARNVTMETE |
| binds | NAPA (protein, UniProt P54920 1-295) MDNSGKEAEAMALLAEAERKVKNSQSFFSGLFGGSSKIEEACEIYARAANMFKMAKNWSAAGNAFCQAAQLHLQLQSKHDAATCFVDAGNAFKKADPQEAINCLMRAIEIYTDMGRFTIAAKHHISIAEIYETELVDIEKAIAHYEQSADYYKGEESNSSANKCLLKVAGYAALLEQYQKAIDIYEQVGTNAMDSPLLKYSAKDYFFKAALCHFCIDMLNAKLAVQKYEELFPAFSDSRECKLMKKLLEAHEEQNVDSYTESVKEYDSISRLDQWLTTMLLRIKKTIQGDEEDLR |
